Data from US20140171510A1, “HO[…] AND/OR CONJUGATES OF AMPHETAMINE AND OTHER […] PROCESSES FOR MAKING AND USING THE SAME” (priority 2011, published 2014).
Some results were stated once for a whole list of compounds, not compound by compound.

What was measured:
[1] = Intranasal study in rats, plasma d-amphetamine by ELISA (Example 7); settings: for release of d-amphetamine: whole study
[2] = Intravenous study in rats, plasma d-amphetamine by ELISA (Example 8)

Substance | release of d-amphetamine within the first hour of administration [1] | release of d-amphetamine [1] | release of d-amphetamine [2]
l-homoarginine-d-amphetamine [hArg-Amp] | < 25% | < 50% | < 15%
l-lysine-d-amphetamine [Lys-Amp, reference compound] | < 25% | < 50% | < 15%
